Data: PubChem BioAssay AID1688 (National Center for Advancing Translational Sciences (NCATS), 2009)
Screen size: about 220,000 compounds; about 2,400 (1.1%) were called active. Inconclusive results, whose numbers are uncertain, are shown with a selection of clear calls. Calls come from the whole dose curve; as a rule, active = well fitted inhibition curve with a large enough effect; inconclusive = small, poorly fitted or top-dose-only effect, or effect the other way; inactive = no such curve, though single readings can be large or run the other way. Potencies beside an inconclusive call are fits to weak or partial responses and may not hold up.

test: qHTS Multiplex Assay to Identify Dual Action Probes in a Cell Model of Huntington: Aggregate Formation (GFP); conditions: PC12 HttQ103-GFP aggregates, Acumen cytometry, 40 h; activity change, negative = inhibition: at 46.1 µM (top of the series) unless noted; note: nearly all actives have a fitted effect of over 60% in size
Method in brief: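 Read-out: GFP aggregate count by laser scanning cytometer (488 nm excitation, 500-530 nm emission, 1–25 µm objects >6 SD above background). Cells: PC12, inducible HTTex1-Q103-GFP, 100 nM tebufenozide; compounds titrated.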
% is set by controls: 0 for no effect and ±100 for the full control effect; potency is the fitted concentration of half-maximal effect.

| SMILES | activity change, negative = inhibition | Potency |
| --- | --- | --- |
| CC1CC(=O)NN1C(=O)c1ccccc1 (centres undefined) | inactive: 19.9% [at 9.22 µM] | – |
| O=c1c2ccccc2sc2nc(C3CCCCC3)n(Cc3ccco3)c(=O)c12 | inactive: 0.358% | – |
| CCC1CCCCN1C(=O)COc1cc(=O)n(C)c2ccccc12 (centres undefined) | inactive: 14% | – |
| CC(C)CC(=O)/C=C/n1c(=S)oc2ccccc21 | – | inconclusive: 35.5 µM [inhibitor, single point] |
| CCC(=O)N1N=C(c2c(-c3ccccc3)c3cc(Cl)ccc3[nH]c2=O)CC1c1ccco1 (centres undefined) | – | inconclusive: 5.01 µM [inhibitor, full curve] |
| O=C(CSc1nc(-c2ccc(F)cc2)nc2c1Cc1ccccc1O2)Nc1ccc(C(=O)O)cc1 | – | inconclusive: 17.8 µM [inhibitor, single point] |
| O=C(O)c1ccc2ncsc2c1 | inactive: 12.7% [at 9.22 µM] | – |
| CCCN(CC(=O)Nc1ccccc1C)C(=O)CCl | – | inconclusive: 14.1 µM [inhibitor, single point] |
| CC(=O)c1c(C)[nH]c(C(=O)CSc2nc3ccc(C)cc3[nH]2)c1C | – | inconclusive: 11.2 µM [inhibitor, partial curve] |
| COc1c(F)c(F)c(C(=O)O)c(Nc2cccc(C)c2)c1F | inactive: -0.677% | – |
| COc1ccc(N2C(N)=NC(N)=NC2(C)C)cc1 | – | inconclusive: 0.562 µM [inhibitor, full curve, poor fit] |
| COc1ccc(OC)c(S(=O)(=O)Nc2ccc(Oc3ccccc3)cc2)c1 | inactive: -1.28% | – |
| C=C(C)c1cccc(C(C)(C)NC(=O)Nc2cc(C)ccn2)c1 | – | inconclusive: 8.91 µM [inhibitor, partial curve] |
| CCCCCCCCOC(=O)C[N+](C)(C)C/C=C(/C)Cl | – | inconclusive: 28.2 µM [inhibitor, single point] |
| Cc1ccc(C2C3=C(CCCC3=O)Nc3[nH]c(=S)[nH]c(=O)c32)cc1 (centres undefined) | inactive: -7.35% | – |
| COc1cccc(NC(=S)NN2C(C)CCCC2C)c1 (centres undefined) | – | inconclusive: 35.5 µM [inhibitor, single point] |
| CN(C)Cc1c(O)ccc2oc(Cc3ccccc3)cc12 | – | active: 4.47 µM |
| CCC(C)n1c(=S)[nH]c2c(sc3ccc([N+](=O)[O-])cc32)c1=O (centres undefined) | – | active: 10 µM |
| CC(C)CN(/C=N/c1sc2c(c1C#N)CCCCC2)CC(C)C | – | inconclusive: 11.2 µM [inhibitor, single point] |
| C=CCn1c(-c2ccccc2)c[nH]c1=S | – | inconclusive: 7.08 µM [activator, partial curve] |
| CCOC(=O)C1CCCN(C/C(O)=C(\C#N)c2nc(-c3ccc(Cl)cc3)cs2)C1 (centres undefined) | – | inconclusive: 0.1 µM [activator, partial curve, poor fit] |
| CN(c1ccccc1)S(=O)(=O)c1ccc(C(=O)Nc2nnc(C3=COCCO3)o2)cc1 | – | inconclusive: 35.5 µM [inhibitor, single point] |
| Cc1ccc(NC(=O)c2c(C(F)(F)F)nn(C)c2SCc2cccc(C(F)(F)F)c2)cc1C | – | inconclusive: 10 µM [inhibitor, partial curve] |
| Cc1nn(-c2ccccc2)c(Cl)c1/C=N/NC(=O)c1ccc(NS(=O)(=O)c2cccs2)cc1 | – | inconclusive: 35.5 µM [inhibitor, single point] |
| CCCCn1c(SCC(=O)NCc2ccccc2)nc2ccc(N3CCOCC3)cc2c1=O | – | inconclusive: 5.62 µM [activator, single point] |
| Cc1cccc(C)c1NC(=O)c1ccc(-c2ccc(Cl)cc2Cl)o1 | – | active: 11.2 µM |
| CCOC(=O)c1c(NC(=O)c2c(-c3ccccc3)noc2C)sc(C)c1-c1ccccc1 | inactive: -29% | – |

| SMILES | activity change, negative = inhibition | Potency |
| --- | --- | --- |
| CCN1C2=C(C(=O)CCC2)C(c2ccc(O)cc2)C2=C1CCCC2=O | – | inconclusive: 5.62 µM [inhibitor, single point] |
| CCOC(=O)N1CCC(Nc2ncnc3c2cnn3-c2ccc(C)cc2C)CC1 | – | active: 12.6 µM |
| Cn1cnnc1Sc1ccc(/C=C/C(=O)c2ccc(O)cc2)cc1[N+](=O)[O-] | – | inconclusive: 35.5 µM [inhibitor, single point] |
| Cc1ccc(Cn2ncc(Cl)c(Cl)c2=O)cc1 | – | inconclusive: 35.5 µM [inhibitor, single point] |
| OC(c1ccccc1)(c1ccccc1)C1CCN(C(=S)NCCc2ccccc2)CC1 | – | inconclusive: 15.8 µM [inhibitor, single point] |
| COc1ccc(/C=C2\CCCC3C2=NN(C(=O)COC(=O)CNC(=O)c2ccccc2)C3c2ccc(OC)cc2)cc1 (centres undefined) | – | inconclusive: 20 µM [inhibitor, single point] |
| COc1ccc(/C=C/C(=O)Nc2nonc2NC(C)=O)cc1 | inactive: -5.22% | – |
| Cc1ccc(NC(=O)COC(=O)C2CC2(Cl)Cl)cc1C (centres undefined) | inactive: -7.17% | – |
| CC1CCc2c(C(=O)NCCCN3CCOCC3)csc2C1 (centres undefined) | – | inconclusive: 5.62 µM [activator, single point] |
| Cc1ccc(SCc2[nH]nc3c2C2(C(=O)N(C)c4ccccc42)C(C#N)=C(N)O3)cc1 (centres undefined) | – | inconclusive: 0.794 µM [inhibitor, single point] |
| CCCOc1ccc(Cc2c(Cl)nc(SC)nc2N(C)C)cc1 | – | inconclusive: 22.4 µM [inhibitor, single point] |
| COc1cc(C(=S)N2CCCC2)cc(OC)c1OS(=O)(=O)c1ccc(NC(C)=O)cc1 | inactive: -12.2% | – |
| COC(=O)C1=C(C)NC(C)=C(C(=O)OC)C1c1ccc2ccccc2n1 | inactive: 24.1% | – |
| O=C(Oc1cccc2ccccc12)c1cc(Cl)nc2ccccc12 | – | inconclusive: 0.708 µM [inhibitor, single point] |
| O=C(N/N=C/c1c[nH]c2ccccc12)c1cc(-c2ccc(-c3ccccc3)cc2)n[nH]1 | – | inconclusive: 35.5 µM [activator, single point] |
| COc1ccc(CC(=O)Nc2cc(C)on2)cc1 | inactive: 3.49% | – |
| Nc1ccc(S(=O)(=O)Nc2ccc(S(N)(=O)=O)cc2)cc1 | – | inconclusive: 1.26 µM [inhibitor, single point] |
| Cc1ccc(S(=O)(=O)c2ccc(Oc3ccccc3)cc2)cc1 | – | inconclusive: 17.8 µM [inhibitor, single point] |
| Cc1cc(C#N)c(C)c(SCc2[nH]nc3c2C(c2ccccc2)C(C#N)=C(N)O3)n1 (centres undefined) | – | inconclusive: 3.98 µM [activator, full curve] |
| O=C(COC(=O)C1CC(O)CN1S(=O)(=O)c1ccc(Cl)cc1)c1ccccc1 (centres undefined) | inactive: -16.1% | – |
| Clc1ccc(-c2n[nH]c3c2CCC3)cc1Cl | – | inconclusive: 11.2 µM [inhibitor, partial curve] |
| S=C(NCc1cccnc1)Nc1ccc(Oc2ccccc2)cc1 | – | inconclusive: 35.5 µM [inhibitor, single point] |
| C/C(=N\Nc1ccc([N+](=O)[O-])cc1)c1cc2ccccc2o1 | inactive: -3% | – |
| O=[N+]([O-])c1cccc(/C=N/n2cnnc2)c1 | – | inconclusive: 0.355 µM [inhibitor, partial curve] |
| COc1cccc(Nc2nc(-c3ccc4c(c3)OCCO4)cs2)c1 | – | inconclusive: 35.5 µM [inhibitor, single point] |
| CCn1c2ccccc2c2cnc(N=CN(C)C)c(C#N)c21 | – | active: 8.91 µM |
| O=C1c2cccc3c(Nc4ccccc4Cl)c([N+](=O)[O-])cc(c23)C(=O)N1CCO | – | active: 10 µM |

Part of the list above, bar-delimited.
SMILES | activity change, negative = inhibition | Potency
COC(=O)C1=C(C)NC(C)=C(C(=O)OC)C1c1ccc2ccccc2n1 | inactive: 24.1% | –
O=C(Oc1cccc2ccccc12)c1cc(Cl)nc2ccccc12 | – | inconclusive: 0.708 µM [inhibitor, single point]
O=C(N/N=C/c1c[nH]c2ccccc12)c1cc(-c2ccc(-c3ccccc3)cc2)n[nH]1 | – | inconclusive: 35.5 µM [activator, single point]
COc1ccc(CC(=O)Nc2cc(C)on2)cc1 | inactive: 3.49% | –
Nc1ccc(S(=O)(=O)Nc2ccc(S(N)(=O)=O)cc2)cc1 | – | inconclusive: 1.26 µM [inhibitor, single point]
Cc1ccc(S(=O)(=O)c2ccc(Oc3ccccc3)cc2)cc1 | – | inconclusive: 17.8 µM [inhibitor, single point]
Cc1cc(C#N)c(C)c(SCc2[nH]nc3c2C(c2ccccc2)C(C#N)=C(N)O3)n1 (centres undefined) | – | inconclusive: 3.98 µM [activator, full curve]
O=C(COC(=O)C1CC(O)CN1S(=O)(=O)c1ccc(Cl)cc1)c1ccccc1 (centres undefined) | inactive: -16.1% | –
Clc1ccc(-c2n[nH]c3c2CCC3)cc1Cl | – | inconclusive: 11.2 µM [inhibitor, partial curve]
S=C(NCc1cccnc1)Nc1ccc(Oc2ccccc2)cc1 | – | inconclusive: 35.5 µM [inhibitor, single point]
C/C(=N\Nc1ccc([N+](=O)[O-])cc1)c1cc2ccccc2o1 | inactive: -3% | –
O=[N+]([O-])c1cccc(/C=N/n2cnnc2)c1 | – | inconclusive: 0.355 µM [inhibitor, partial curve]
COc1cccc(Nc2nc(-c3ccc4c(c3)OCCO4)cs2)c1 | – | inconclusive: 35.5 µM [inhibitor, single point]
CCn1c2ccccc2c2cnc(N=CN(C)C)c(C#N)c21 | – | active: 8.91 µM
